The list shows a part of the results. Only a few entries rise above the background.
Columns and labels:
Assay in all cases: fluorescence intensity of antibody binding to polysaccharide-coupled beads; higher = stronger binding
[1] = biological target: pneumococcal polysaccharide Pn41A
[2] = biological target: pneumococcal polysaccharide Pn41F
[3] = biological target: pneumococcal polysaccharide Pn42
[4] = biological target: pneumococcal polysaccharide Pn43
[5] = biological target: pneumococcal polysaccharide Pn44
[6] = biological target: pneumococcal polysaccharide Pn45
[7] = biological target: pneumococcal polysaccharide Pn46
[8] = biological target: pneumococcal polysaccharide Pn47A
[9] = biological target: pneumococcal polysaccharide Pn47F
[10] = biological target: pneumococcal polysaccharide Pn48
[11] = biological target: pneumococcal polysaccharide Pn5
[12] = biological target: pneumococcal polysaccharide Pn6A
[13] = antibody concentration 2.8593 ng/mL
[14] = antibody concentration 15.2894 ng/mL
[15] = antibody concentration 81.7561 ng/mL
[16] = antibody concentration 437.17 ng/mL
[17] = antibody concentration 2337.65 ng/mL
[18] = antibody concentration 12500 ng/mL
[19] = antibody concentration 0.1 ng/mL
[20] = antibody concentration 0.534724 ng/mL

B1: 4-127.1 (protein)
chain 1: QVQLQESGPGLVKPSETLSLTCAVSDYSINTGHGWTWIRQPPGKGLEWIGYIGGSSGSPNYNPSLKSRVTISKDTSKNELSLKLNSVTAADTAVYYCARRIPADRSGNDFWGQGVLVTVSS
chain 2: QSVLTQPPSVSGDPGQRVTISCTGSSSNIGGFYGYWYQQFPGTAPKLLIYDNNKRPSGISDRFSGSKSGTSASLTITGLQPGDEADYYCGSWDSSLSAHVFGSGTKLTVL
- fluorescence intensity [1, 13]: 24 MFI
- fluorescence intensity [1, 14]: 24 MFI
- fluorescence intensity [1, 15]: 22.5 MFI
- fluorescence intensity [1, 16]: 22.2 MFI
- fluorescence intensity [1, 17]: 25.8 MFI
- fluorescence intensity [1, 18]: 28 MFI
- fluorescence intensity [2, 19]: 12 MFI
- fluorescence intensity [2, 20]: 12 MFI
- fluorescence intensity [2, 13]: 12 MFI
- fluorescence intensity [2, 14]: 12 MFI
- fluorescence intensity [2, 15]: 12.2 MFI
- fluorescence intensity [2, 16]: 13 MFI
- fluorescence intensity [2, 17]: 15.5 MFI
- fluorescence intensity [2, 18]: 20.5 MFI
- fluorescence intensity [3, 19]: 11.5 MFI
- fluorescence intensity [3, 20]: 12 MFI
- fluorescence intensity [3, 13]: 12 MFI
- fluorescence intensity [3, 14]: 12.5 MFI
- fluorescence intensity [3, 15]: 12 MFI
- fluorescence intensity [3, 16]: 11.8 MFI
- fluorescence intensity [3, 17]: 13.5 MFI
- fluorescence intensity [3, 18]: 21.8 MFI
- fluorescence intensity [4, 19]: 15 MFI
- fluorescence intensity [4, 20]: 15.8 MFI
- fluorescence intensity [4, 13]: 15.5 MFI
- fluorescence intensity [4, 14]: 15.5 MFI
- fluorescence intensity [4, 15]: 14.8 MFI
- fluorescence intensity [4, 16]: 17.5 MFI
- fluorescence intensity [4, 17]: 23 MFI
- fluorescence intensity [4, 18]: 89.5 MFI
- fluorescence intensity [5, 19]: 25 MFI
- fluorescence intensity [5, 20]: 26 MFI
- fluorescence intensity [5, 13]: 23 MFI
- fluorescence intensity [5, 14]: 25.2 MFI
- fluorescence intensity [5, 15]: 26.5 MFI
- fluorescence intensity [5, 16]: 25.5 MFI
- fluorescence intensity [5, 17]: 30 MFI
- fluorescence intensity [5, 18]: 32.5 MFI
- fluorescence intensity [6, 19]: 10.5 MFI
- fluorescence intensity [6, 20]: 11 MFI
- fluorescence intensity [6, 13]: 11 MFI
- fluorescence intensity [6, 14]: 11 MFI
- fluorescence intensity [6, 15]: 10 MFI
- fluorescence intensity [6, 16]: 10.2 MFI
- fluorescence intensity [6, 17]: 14.8 MFI
- fluorescence intensity [6, 18]: 16.8 MFI
- fluorescence intensity [7, 19]: 23.8 MFI
- fluorescence intensity [7, 20]: 23.8 MFI
- fluorescence intensity [7, 13]: 22.8 MFI
- fluorescence intensity [7, 14]: 24.5 MFI
- fluorescence intensity [7, 15]: 25 MFI
- fluorescence intensity [7, 16]: 25.5 MFI
- fluorescence intensity [7, 17]: 27.2 MFI
- fluorescence intensity [7, 18]: 47 MFI
- fluorescence intensity [8, 19]: 14.5 MFI
- fluorescence intensity [8, 20]: 16.5 MFI
- fluorescence intensity [8, 13]: 15 MFI
- fluorescence intensity [8, 14]: 17 MFI
- fluorescence intensity [8, 15]: 16.5 MFI
- fluorescence intensity [8, 16]: 15.5 MFI
- fluorescence intensity [8, 17]: 15.5 MFI
- fluorescence intensity [8, 18]: 21 MFI
- fluorescence intensity [9, 19]: 11.5 MFI
- fluorescence intensity [9, 20]: 11.5 MFI
- fluorescence intensity [9, 13]: 13 MFI
- fluorescence intensity [9, 14]: 12 MFI
- fluorescence intensity [9, 15]: 12 MFI
- fluorescence intensity [9, 16]: 11.5 MFI
- fluorescence intensity [9, 17]: 14.2 MFI
- fluorescence intensity [9, 18]: 32.5 MFI
- fluorescence intensity [10, 19]: 19.5 MFI
- fluorescence intensity [10, 20]: 21.5 MFI
- fluorescence intensity [10, 13]: 21 MFI
- fluorescence intensity [10, 14]: 22.8 MFI
- fluorescence intensity [10, 15]: 22 MFI
- fluorescence intensity [10, 16]: 22 MFI
- fluorescence intensity [10, 17]: 31 MFI
- fluorescence intensity [10, 18]: 50.5 MFI
- fluorescence intensity [11, 19]: 8.5 MFI
- fluorescence intensity [11, 20]: 8.5 MFI
- fluorescence intensity [11, 13]: 10 MFI
- fluorescence intensity [11, 14]: 8 MFI
- fluorescence intensity [11, 15]: 8.5 MFI
- fluorescence intensity [11, 16]: 10 MFI
- fluorescence intensity [11, 17]: 12.5 MFI
- fluorescence intensity [11, 18]: 34.5 MFI
- fluorescence intensity [12, 19]: 20.8 MFI
- fluorescence intensity [12, 20]: 20.8 MFI
- fluorescence intensity [12, 13]: 20.5 MFI
- fluorescence intensity [12, 14]: 21.2 MFI
